Laboratory results published in PubChem BioAssay AID504467 (National Center for Advancing Translational Sciences (NCATS), 2011).
Screen size: about 330,000 compounds; about 7,700 (2.3%) were called active. Inconclusive means that the source gave no clear call. Such entries were picked first, then a sample of the others. Calls come from the whole dose curve; as a rule, active = well fitted inhibition curve with a large enough effect; inconclusive = small, poorly fitted or top-dose-only effect, or effect the other way; inactive = flat fitted curve, though single readings scatter. Where the call is inconclusive, the potency comes from a doubtful curve fit.

test: qHTS screen for small molecules that inhibit ELG1-dependent DNA repair in human embryonic kidney (HEK293T) cells expressing luciferase-tagged ELG1; conditions: HEK293T ELG1-luciferase reporter, luminescence, 16 h, DNA damage induced by 5-fluorouridine; series mostly up to 46.1 µM; note: nearly all actives have a fitted effect of over 55% in size
Procedure, shortened: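 Reporter activity after DNA damage by 5-fluorouridine is monitored. Compound-treated cells incubate 16 hr at 37 °C, then ONE-Glo is added for 30 min before luminescence reading.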
Potency is the fitted concentration of half-maximal effect.

**Q.** Which Potency does the source give for `COc1ccc(/C=C/C(=O)c2sc(-c3ccccc3)nc2C)cc1` here?
**A.** inactive

**Q.** Which Potency does the source give for `O=C(c1ccc2c(c1)OCO2)N1CCN(S(=O)(=O)c2ccc(Cl)cc2)CC1` here?
**A.** inactive

**Q.** For `CCN(CC)c1ccc(/C=C/C(=O)C2C(=O)C=C(C)OC2=O)cc1` (centres undefined), which Potency is on record?
**A.** inconclusive: 3.26 µM [activator, full curve]

**Q.** For `Cc1ccc2nc3c(cc(C(=O)NCC4CCCO4)c(=N)n3CCCOC(C)C)c(=O)n2c1` (centres undefined), which Potency is on record?
**A.** inactive

**Q.** Which Potency does the source give for `O=C(NCc1ccc(F)cc1Cl)C1CCN(S(=O)(=O)N2CCC3(CC2)OCCO3)CC1` here?
**A.** inconclusive: 18.4 µM [inhibitor, partial curve, poor fit]

**Q.** With `O=C(c1cccc(Cl)c1)N1CCC(N2CCC(C(=O)N3CCCC3)CC2)CC1` as the compound, how does the Potency read?
**A.** inconclusive: 18.3 µM [activator, single point]

**Q.** Which Potency does the source give for `Cc1ccc(CCNC(=O)C2CC(c3cc(C(F)(F)F)cc(C(F)(F)F)c3)=NO2)cc1` (centres undefined) here?
**A.** inactive

**Q.** With `N#CCOC(=O)/C=C/c1ccc2c(c1)OCO2` as the compound, how does the Potency read?
**A.** inactive

**Q.** Which Potency does the source give for `C/C(=N\Nc1nc(N2CCCCC2)nc(N2CCOCC2)n1)c1cccs1` here?
**A.** inconclusive: 29.1 µM [inhibitor, single point]

**Q.** Which Potency does the source give for `COc1ccc(OCc2cc(C(=O)NCCN3CCCc4ccccc43)no2)c(Cl)c1` here?
**A.** inconclusive: 25.9 µM [inhibitor, partial curve, poor fit]

**Q.** For `Cn1c(=O)c2c(nc(NCc3ccco3)n2Cc2ccccc2Cl)n(C)c1=O`, which Potency is on record?
**A.** inconclusive: 8.2 µM [inhibitor, single point]

**Q.** With `C/C(CC(C)(C)C1CCCCC1)=N\NC(N)=S` as the compound, how does the Potency read?
**A.** inconclusive: 16.4 µM [inhibitor, partial curve]

**Q.** Which Potency does the source give for `CCC(O)c1cc2c(cc1NC(=O)c1ccc(C)cc1)OCCO2` (centres undefined) here?
**A.** inactive

**Q.** For `COc1ccc(-n2nnnc2SC(C)C(=O)NCC(=O)Nc2ccc(F)c(F)c2F)cc1` (centres undefined), which Potency is on record?
**A.** inconclusive: 25.9 µM [inhibitor, partial curve]

**Q.** For `Cn1c(SCc2ccccc2)nnc1-c1c[nH]c2ccccc12`, which Potency is on record?
**A.** inconclusive: 0.651 µM [activator, single point]

**Q.** Which Potency does the source give for `Cc1ccc(C(=O)c2cccc(N)c2)cc1C` here?
**A.** inconclusive: 18.3 µM [activator, single point]

**Q.** For `O=C(NC(=S)Nc1ccc2c(c1)OCO2)c1ccccc1`, which Potency is on record?
**A.** inconclusive: 2.31 µM [activator, partial curve, poor fit]

**Q.** For `CCSc1cc(C)nc2c(-c3ccc(Cl)cc3)c(C)nn12`, which Potency is on record?
**A.** inactive

**Q.** With `COc1ccc(C(=O)Cn2nnc(-c3ccccc3NC(=O)C3CCCCC3)n2)cc1` as the compound, how does the Potency read?
**A.** inconclusive: 2.31 µM [inhibitor, partial curve, poor fit]

**Q.** For `Cc1ccc(-c2noc(C3CCCN(S(=O)(=O)c4ccc(S(=O)(=O)N(C)C)cc4)C3)n2)o1` (centres undefined), which Potency is on record?
**A.** inactive

**Q.** With `CC1(C)Oc2ccc3ccc(=O)oc3c2C[C@H]1O[C@@H]1O[C@H](CO)[C@@H](O)[C@H](O)[C@H]1O` as the compound, how does the Potency read?
**A.** inconclusive: 25.9 µM [activator, partial curve, poor fit]

**Q.** Which Potency does the source give for `C=CCNC(=S)NC(=O)c1oc2ccccc2c1C` here?
**A.** inconclusive: 29.1 µM [activator, single point]

**Q.** With `CCN(CC)c1ccc(-c2c(C#N)c(N)nc(OC)c2C#N)cc1` as the compound, how does the Potency read?
**A.** inconclusive: 29.1 µM [inhibitor, single point]

**Q.** Which Potency does the source give for `O=C1OCC(CO)(CO)N=C1NNc1ccccc1[N+](=O)[O-]` here?
**A.** active: 7.3 µM

**Q.** With `Cc1noc(C)c1NC(=O)Nc1cccc2c1O[C@H](CN(C)S(=O)(=O)c1cn(C)cn1)[C@@H](C)CN([C@H](C)CO)C2=O` as the compound, how does the Potency read?
**A.** inconclusive: 23.1 µM [activator, partial curve, poor fit]

**Q.** With `COC(=O)Cn1c2ccc(OC)cc2c2nc3ccccc3nc21` as the compound, how does the Potency read?
**A.** inactive

**Q.** With `Nc1ccc(NC(=O)NC2CCCCC2)cc1` as the compound, how does the Potency read?
**A.** inconclusive: 29.1 µM [activator, single point]

**Q.** For `Cc1ccc(NC(=O)C(OC(=O)c2ccc(O)cc2)c2ccccc2)cc1Cl` (centres undefined), which Potency is on record?
**A.** inconclusive: 0.82 µM [inhibitor, partial curve, poor fit]

**Q.** Which Potency does the source give for `COc1ccc(NC(=O)C2CCCN(c3c4c(nc5ncnn35)CCC4)C2)cc1` (centres undefined) here?
**A.** inconclusive: 11.2 µM [inhibitor, partial curve, poor fit]

**Q.** For `O=S(=O)(c1ccc(Cl)s1)N1CCN(C/C=C/c2ccccc2)CC1`, which Potency is on record?
**A.** inactive

**Q.** Which Potency does the source give for `CCOc1ncccc1C(=O)OC(C)C(=O)Nc1ccc(Cl)cn1` (centres undefined) here?
**A.** inconclusive: 0.231 µM [inhibitor, single point]

**Q.** Which Potency does the source give for `Cn1cc(/C=C(\C#N)C(=O)Nc2cccc([N+](=O)[O-])c2)c2ccccc21` here?
**A.** inconclusive: 2.31 µM [activator, partial curve, poor fit]

**Q.** With `CCn1cc(C(=O)NCc2cccc(F)c2)c(=O)c2cc(F)c(N3CCN(C(=O)c4ccco4)CC3)cc21` as the compound, how does the Potency read?
**A.** active: 13 µM

**Q.** For `COc1ccc(OC)c(/C=C2\N=C(c3ccccc3)OC2=O)c1`, which Potency is on record?
**A.** inconclusive: 31.6 µM [activator, single point]

**Q.** For `CC(c1ccncn1)N(C)C(=O)c1ccc2oc(Cc3ccccc3)nc2c1` (centres undefined), which Potency is on record?
**A.** inconclusive: 29.1 µM [activator, single point]

**Q.** With `CCOc1ccc(CNC(=O)Cn2nc(C)c3c(C)n(-c4ccc(C)cc4)nc3c2=O)cc1` as the compound, how does the Potency read?
**A.** inactive

**Q.** For `Cc1cc(NCCc2ccc(Cl)cc2)n2ncnc2n1`, which Potency is on record?
**A.** inconclusive: 14.6 µM [inhibitor, single point]

**Q.** For `O=C(CN1CCN(C(=O)c2ccccc2)CC1)Nc1ccc(Cl)cc1F`, which Potency is on record?
**A.** inactive

**Q.** Which Potency does the source give for `CC(=O)c1ccc(-n2nnnc2SCC(=O)NC2CCCCC2)cc1` here?
**A.** inconclusive: 20.6 µM [inhibitor, partial curve, poor fit]

**Q.** For `O=C(NCC(c1ccco1)N1CCc2ccccc2C1)c1cccc(F)c1` (centres undefined), which Potency is on record?
**A.** inactive

**Q.** With `CC1(C)CC2=C(CO1)C(=S)NC(c1ccccc1)N2CC1CCCO1` (centres undefined) as the compound, how does the Potency read?
**A.** inactive

**Q.** Which Potency does the source give for `S=C(NCc1ccccc1)N1CCN(c2cccc(Cl)c2)CC1` here?
**A.** inconclusive: 0.92 µM [inhibitor, full curve]

**Q.** With `CCN1CCCc2cc(CN(CCN3CCOCC3)C(=S)Nc3ccc(OC)c(Cl)c3)ccc21` as the compound, how does the Potency read?
**A.** inactive

**Q.** For `CC(C1CC1)N(Cc1ccccc1)C(=S)Nc1ccccc1Cl` (centres undefined), which Potency is on record?
**A.** inconclusive: 25.9 µM [inhibitor, partial curve, poor fit]

**Q.** With `COc1ccc(C(=O)COC(=O)[C@@H](NS(=O)(=O)c2ccccc2)C(C)C)cc1` as the compound, how does the Potency read?
**A.** inconclusive: 32.6 µM [inhibitor, partial curve, poor fit]

**Q.** For `C(=N\Nc1nc2ccccc2s1)/c1ccc2c(c1)OCO2`, which Potency is on record?
**A.** inconclusive: 1.16 µM [activator, full curve]

**Q.** For `C=C1C(=O)C=C2CN(C(=O)c3ccccc3)[C@@](Cc3ccc(F)cc3)(C(=O)OC)[C@@H]12`, which Potency is on record?
**A.** active: 2.91 µM

**Q.** With `CCCn1c(=O)c2ccccc2n2c(SCC(=O)NCc3cccs3)nnc12` as the compound, how does the Potency read?
**A.** inactive

**Q.** Which Potency does the source give for `Cc1ccc(NC(=O)C2Cc3ccccc3C(=O)O2)cc1` (centres undefined) here?
**A.** inconclusive: 18.3 µM [activator, partial curve]

**Q.** For `COc1ccc(NS(=O)(=O)c2ccc3c(c2)N(C(C)=O)CCO3)c(OC)c1`, which Potency is on record?
**A.** inactive

**Q.** With `COc1ccc(NC(=O)CSc2nc3ccccc3nc2N2CCCC2)cc1Cl` as the compound, how does the Potency read?
**A.** inactive

**Q.** For `CCCn1c(SCC(=O)Nc2cc(Cl)ccc2OC)n[nH]c1=O`, which Potency is on record?
**A.** inconclusive: 29.1 µM [inhibitor, single point]

**Q.** With `Cc1ccc(C(=O)NC(=S)Nc2cc(-c3nc4ccccc4s3)ccc2C)cc1` as the compound, how does the Potency read?
**A.** inconclusive: 16.4 µM [activator, partial curve]

**Q.** For `CC(=O)c1ccc(NC(=O)C2CCN(S(=O)(=O)c3cccs3)CC2)cc1`, which Potency is on record?
**A.** inconclusive: 25.9 µM [activator, partial curve]

**Q.** For `CC(=O)N(C)c1nnc(-c2cnccn2)s1`, which Potency is on record?
**A.** inconclusive: 3.98 µM [activator, full curve, poor fit]

**Q.** For `CCS(=O)(=O)c1nc(S(=O)(=O)c2ccc(Cl)cc2)c(N2CCC(C(N)=O)CC2)s1`, which Potency is on record?
**A.** inactive

**Q.** Which Potency does the source give for `Cc1ccc(-n2cc(CNCCc3ncc(C)[nH]3)c(-c3ccc(F)cc3)n2)cc1` here?
**A.** inactive

**Q.** For `O=C(CCN1C(=O)/C(=C\c2ccccc2)SC1=S)Nc1ccc(C(=O)O)cc1`, which Potency is on record?
**A.** inactive

**Q.** Which Potency does the source give for `O=C(C1=C[C@H](c2ccc3c(c2)OCO3)C[C@H](OCc2ccc(CO)cc2)O1)N1CCN(Cc2ccc3c(c2)OCO3)CC1` here?
**A.** active: 16.4 µM

**Q.** Which Potency does the source give for `CN(CC(=O)Nc1ccc(Cl)cc1)S(=O)(=O)c1ccc2c(c1)n(C)c(=O)c(=O)n2C` here?
**A.** inconclusive: 23.1 µM [activator, partial curve, poor fit]

**Q.** For `CCOc1ccc(/C=N/NC(=O)NC23CC4CC(CC(C4)C2)C3)cc1O`, which Potency is on record?
**A.** inconclusive: 23.1 µM [inhibitor, single point]

**Q.** For `CCOc1nc(NCc2ccco2)nc(Nc2ccc(OC)cc2)n1`, which Potency is on record?
**A.** inconclusive: 29.1 µM [inhibitor, single point]

**Q.** With `NS(=O)(=O)c1ccc(CCNC(=O)COC(=O)CC(c2ccccc2)c2ccccc2)cc1` as the compound, how does the Potency read?
**A.** active: 20.6 µM

**Q.** For `CC(C)C(=O)N1CCN(c2ccc(NC(=O)c3ccco3)cc2Cl)CC1`, which Potency is on record?
**A.** inconclusive: 29.1 µM [inhibitor, single point]

**Q.** For `COc1ccc(N(Cc2ccccc2)C(=O)CSc2nnc(Cn3nnc4ccccc43)o2)cc1`, which Potency is on record?
**A.** active: 18.4 µM

**Q.** With `COC(=O)c1ccccc1NC(=O)c1cccc(COc2ccccc2Cl)c1` as the compound, how does the Potency read?
**A.** inconclusive: 4.11 µM [activator, full curve]

**Q.** Which Potency does the source give for `COc1ccc(NC(=O)C2CC(c3cc(OC)c(OC)c(OC)c3)=NO2)cc1OC` (centres undefined) here?
**A.** inconclusive: 20.6 µM [inhibitor, single point]

**Q.** Which Potency does the source give for `CC(C)Oc1ccccc1NC(=O)CSc1nccn1C` here?
**A.** inactive

**Q.** Which Potency does the source give for `Cc1cc(N2C(=O)c3ccccc3C2=O)n(C)n1` here?
**A.** inconclusive: 2.06 µM [activator, partial curve, poor fit]
